# PubChem BioAssay AID2588 (National Center for Advancing Translational Sciences (NCATS), 2010)
# Sequences of proteins named here, by UniProt entry; tags and fusion partners are left off. A change or cut given only in a name is not applied to a line headed by its entry.
# UniProt P04062: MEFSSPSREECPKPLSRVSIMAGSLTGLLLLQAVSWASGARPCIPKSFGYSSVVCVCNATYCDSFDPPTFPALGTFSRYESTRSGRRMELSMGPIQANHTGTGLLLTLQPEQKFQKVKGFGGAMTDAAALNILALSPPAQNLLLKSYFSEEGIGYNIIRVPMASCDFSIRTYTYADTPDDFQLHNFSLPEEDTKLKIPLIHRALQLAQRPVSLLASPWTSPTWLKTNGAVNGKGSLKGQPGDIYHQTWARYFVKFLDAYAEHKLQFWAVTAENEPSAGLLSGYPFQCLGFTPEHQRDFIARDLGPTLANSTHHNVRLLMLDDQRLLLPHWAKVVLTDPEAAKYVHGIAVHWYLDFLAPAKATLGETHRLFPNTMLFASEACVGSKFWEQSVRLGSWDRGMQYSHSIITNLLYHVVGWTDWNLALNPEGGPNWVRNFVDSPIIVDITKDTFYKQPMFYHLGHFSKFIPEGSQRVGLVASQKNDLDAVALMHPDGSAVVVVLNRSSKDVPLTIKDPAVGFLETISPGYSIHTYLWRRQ
# This list was built around the results that the source calls inconclusive (neither active nor inactive); the mix of calls is not that of the screen. Where the call is inconclusive, the potency comes from a doubtful curve fit. The source made the active and inactive calls. The call rests on the fitted dose curve; in most records, active means well fitted inhibition curve with a large enough effect; inconclusive means small, poorly fitted or top-dose-only effect, or effect the other way; inactive means flat fitted curve, though single readings scatter.
# Target: Lysosomal acid glucosylceramidase (Homo sapiens) (UniProt P04062)
# Assay: qHTS Assay for Inhibitors and Activators of N370S glucocerebrosidase as a Potential Chaperone Treatment of Gaucher Disease: Activity in Non-Mutant Spleen Homogenate Using a Red Fluorescent Substrate
# Settings: red fluorogenic substrate GCase activity; series mostly up to 50.2 µM
# Text: NIH Chemical Genomics Center [NCGC]
# NIH Molecular Libraries Probe Production Centers Network [MLPCN]
# Assay Submitter (PI): Wei Zheng
# Glucocerebrosidase (GC) catalyzes the hydrolysis of beta-glucocerebroside to glucose and ceramide in lysosomes. Mutations in the glucocerebrosidase gene result in Gaucher disease, an autosomal recessive lysosomal storage disorder. Many of the mutations encountered in patients with Gaucher disease are missense alterations that may cause misfolding, decreased stability and/or mistrafficking of this lysosomal protein. […] These inhibitors include iminosugar analogs and three non-iminosugar inhibitors identified from a previous HTS of 62,000 compounds with the wild type recombinant enzyme. However, the enhancement of enzyme activity by the chaperone action of an enzyme inhibitor must be balanced against the direct inhibition of the enzyme. An enzyme activator could also function as a chaperone by binding to the enzyme and helping to correct its misfolding and mistrafficking. While activators for GC have not yet been identified, they may have better therapeutic potential than inhibitors. Therefore the discovery and development of chemical activators may provide a new strategy for the chaperone therapy.
# We have optimized a new assay using N370S mutant GC derived from the spleen of a Gaucher patient. […] In addition, the MLPCN compound library has expanded, which increases the chance of finding new and better probes.
# This confirmation assay tests for compound activity in spleen homogenate containing wildtype enzyme using an alternate resorufin-based substrate.
# NCGC Assay Protocol Summary:
# This is a fluorogenic enzyme assay with resorufin-beta-D-glucopyranoside as the substrate and wildtype glucocerebrosidase from human spleen homogenate as the enzyme preparation. Upon the hydrolysis of this fluorogenic substrate, the resulting product, […] which can be detected by a standard fluorescence plate reader. Data were normalized to the controls for basal activity (without enzyme) and 100% activity (with enzyme). The AC50 values were determined from concentration-response data modeled with the standard Hill equation.
# Assay buffer: 50 mM citric acid (titrated with potassium phosphate to pH 5.0), 100 mM potassium chloride, 10 mM sodium chloride, 1 mM magnesium chloride, 0.01% Tween-20.
# 1536-well assay protocol:
# (1) Add 2 ul/well of spleen homogenate (27 ug final)
# (2) Add 23 nL compounds in DMSO solution. The final titration was 0.5 nM to 58 uM.
# (3) Add 2 ul of substrate (1 mM final)
# (4) Incubate at 37C for 40 min.
# (5) Add 2 ul stop solution (1M NaOH and 1M Glycine mixture, pH 10)
# (6) Detect the assay plate in a ViewLux plate reader (PerkinElmer) with Ex=365 nm and Em=440nm.
# Keywords: Glucocerebrosidase, beta-glucosidase, Gaucher Disease, pharmacological chaperone, chaperone therapy, high throughput screening, glucocerebrosidase inhibitor, MLSMR, MLSCN, NIH Roadmap, qHTS and NCGC
row,SMILES,Potency
1,CSc1ccc(NC(=O)Nc2cc(C)ccn2)cc1,"inconclusive: 0.0355 µM [activator, full curve, poor fit]"
2,CCOc1ccc(N(CC(=O)NC2CCCCCC2)S(=O)(=O)c2c(C)[nH]c(=O)[nH]c2=O)cc1,active: 1.41 µM
3,O=S(=O)(c1ccccc1)N1CCN(c2nc(-c3cccs3)nc3ccccc23)CC1,active: 0.316 µM
4,N#Cc1ccc(S(=O)(=O)N2CCN(c3nc(-c4ccccc4)nc4ccccc34)CC2)cc1,"inconclusive: 7.94 µM [inhibitor, full curve]"
5,O=C(NCc1ccccc1)c1ccc(NS(=O)(=O)c2ccccc2)cc1,"inconclusive: 22.4 µM [inhibitor, full curve, poor fit]"
6,NS(=O)(=O)c1ccc(S(=O)(=O)N2CCN(c3nc(-c4ccccc4)nc4ccccc34)CC2)cc1,"inconclusive: 7.94 µM [inhibitor, full curve, poor fit]"
7,Oc1ccccc1Nc1nc(NCC2CCCO2)c2ccccc2n1 (stereo not given),"inconclusive: 20 µM [inhibitor, partial curve, poor fit]"
8,Cc1ccc(NC(=O)COc2ccccc2C(=O)Nc2ccccc2)cc1Cl,inactive
9,O=S(=O)(c1ccc(F)cc1)N1CCN(c2nc(-c3cccs3)nc3cc(Cl)ccc23)CC1,inactive
10,CCOc1ccc(S(=O)(=O)N2CCN(c3nc(-c4ccccc4)nc4ccccc34)CC2)cc1,"inconclusive: 3.98 µM [inhibitor, full curve]"
11,O=S(=O)(c1ccc(F)cc1)N1CCN(c2nc(-c3ccc(F)cc3)nc3cc(Cl)ccc23)CC1,inactive
12,CCc1cc(C(=O)N/N=C/c2c(C)[nH]c3ccccc23)cs1,inactive
13,COc1cccc(NC(=O)CSc2nc3ccccc3c(=O)n2Cc2cccs2)c1,inactive
14,Cc1cc(N2CCOCC2)nc2ccc(NC(=O)C3CCC(C)CC3)cc12 (stereo not given),active: 2.82 µM
15,Cc1ccc(S(=O)(=O)Nc2ccc(C(=O)NCc3ccccc3)cc2)cc1,inactive
16,Cc1cccc(Nc2nc(NCCO)nc(N3CCCC3)n2)c1,inactive
17,Cc1cc(N2CCOCC2)nc2ccc(NC(=O)CCC(=O)NC3CCCCC3)cc12,inactive
18,Cc1ccc2nc(-c3ccc(SCC(=O)N4CCc5ccccc54)nc3)[nH]c2c1,"inconclusive: 31.6 µM [inhibitor, partial curve, poor fit]"
19,Cc1cc(C)cc(N(CC(=O)NC2CCC(C)CC2)S(=O)(=O)c2c(C)[nH]c(=O)[nH]c2=O)c1 (stereo not given),active: 0.398 µM
20,O=S(=O)(c1ccc(C(F)(F)F)cc1)N1CCN(c2nc(-c3cccs3)nc3ccccc23)CC1,active: 1.26 µM

row,SMILES,Potency
1,Cc1cc(N2CCOCC2)nc2ccc(NC(=O)c3ccco3)cc12,"inconclusive: 44.7 µM [inhibitor, single point]"
2,O=C(Nc1cc(Br)ccc1O)c1cnn2c(C(F)F)cc(C3CC3)nc12,inactive
3,O=S(=O)(c1ccccc1Cl)N1CCN(c2nc(-c3cccs3)nc3ccccc23)CC1,active: 0.794 µM
4,O=S(=O)(c1ccc(OC(F)(F)F)cc1)N1CCN(c2nc(-c3ccccc3)nc3ccccc23)CC1,"inconclusive: 8.91 µM [inhibitor, full curve]"
5,O=[N+]([O-])c1ccc(S(=O)(=O)N2CCN(c3nc(-c4ccccc4)nc4ccccc34)CC2)cc1,"inconclusive: 17.8 µM [inhibitor, partial curve]"
6,O=S(=O)(c1cccc(Br)c1)N1CCN(c2nc(-c3cccs3)nc3ccccc23)CC1,active: 1.41 µM
7,CCC(C)NC(=O)COC(=O)c1ccccc1OCC(=O)Nc1ccc(Br)cc1 (stereo not given),inactive
8,COc1cc(OC)c2c(N)c(C#N)c(C(F)(F)C(F)(F)F)nc2c1,inactive
9,Cc1ccc(S(=O)(=O)N2CCN(c3nc(-c4ccccc4)nc4ccccc34)CC2)cc1,"inconclusive: 2 µM [inhibitor, full curve]"
10,O=S(=O)(c1ccc(Cl)cc1)N1CCN(c2nc(-c3ccc(F)cc3)nc3cc(Cl)ccc23)CC1,inactive
11,S=C(NCCCc1cnc[nH]1)NCCCN(Cc1ccc(Cl)c(Cl)c1)c1ccc(Br)cn1,active: 1 µM
12,CCc1ccc(NC(=O)c2cnn3c(C(F)F)cc(C)nc23)cc1,"inconclusive: 39.8 µM [activator, single point]"
13,CCC(C)c1ccc(NC(=O)c2cnn3c(C(F)F)cc(C)nc23)cc1 (stereo not given),"inconclusive: 12.6 µM [activator, partial curve, poor fit]"
14,Cc1cc(C)n2ncc(C(=O)Nc3cccc(O)c3)c2n1,inactive
15,O=C(Nc1ccccc1)c1ccc(NS(=O)(=O)c2ccccc2)cc1,inactive
16,O=S(=O)(c1ccc(C(F)(F)F)cc1)N1CCN(c2nc(-c3ccccc3)nc3ccccc23)CC1,"inconclusive: 0.0447 µM [inhibitor, full curve, poor fit]"
17,O=[N+]([O-])c1ccccc1S(=O)(=O)N1CCN(c2nc(-c3ccccc3)nc3ccccc23)CC1,active: 4.47 µM
18,Cc1cc(N2CCOCC2)nc2ccc(NC(=O)CCC3CCCC3)cc12,active: 3.16 µM
19,CCOC(=O)c1ccc(S(=O)(=O)N2CCN(c3nc(-c4ccccc4)nc4ccccc34)CC2)cc1,"inconclusive: 0.501 µM [inhibitor, full curve, poor fit]"
20,O=S(=O)(c1ccccc1F)N1CCN(c2nc(-c3cccs3)nc3ccccc23)CC1,active: 0.501 µM

# 8 entries from above, reformatted.
row | SMILES | Potency
3 | O=S(=O)(c1ccccc1Cl)N1CCN(c2nc(-c3cccs3)nc3ccccc23)CC1 | active: 0.794 µM
4 | O=S(=O)(c1ccc(OC(F)(F)F)cc1)N1CCN(c2nc(-c3ccccc3)nc3ccccc23)CC1 | inconclusive: 8.91 µM [inhibitor, full curve]
5 | O=[N+]([O-])c1ccc(S(=O)(=O)N2CCN(c3nc(-c4ccccc4)nc4ccccc34)CC2)cc1 | inconclusive: 17.8 µM [inhibitor, partial curve]
6 | O=S(=O)(c1cccc(Br)c1)N1CCN(c2nc(-c3cccs3)nc3ccccc23)CC1 | active: 1.41 µM
7 | CCC(C)NC(=O)COC(=O)c1ccccc1OCC(=O)Nc1ccc(Br)cc1 (stereo not given) | inactive
8 | COc1cc(OC)c2c(N)c(C#N)c(C(F)(F)C(F)(F)F)nc2c1 | inactive
9 | Cc1ccc(S(=O)(=O)N2CCN(c3nc(-c4ccccc4)nc4ccccc34)CC2)cc1 | inconclusive: 2 µM [inhibitor, full curve]
10 | O=S(=O)(c1ccc(Cl)cc1)N1CCN(c2nc(-c3ccc(F)cc3)nc3cc(Cl)ccc23)CC1 | inactive
